Data reported in article PMC8844409.

Target: GFP-Dsn1^Δ326-349 (chicken Dsn1 lacking the Ndc80C-binding region) (chicken)
Experiment: co-IP; GFP-Trap Magnetic agarose on clarified lysates of cKO-Dsn1 DT40 cells expressing GFP-Dsn1^WT or GFP-Dsn1^Δ326-349, tetracycline 36 h (WT cells also nocodazole for the last 10 h); lysis buffer 50 mM NaPi pH 8.0, 300 mM NaCl, 0.1% NP40; 4 °C, 1 h; immunoblot with anti-Dsn1, -Mis12, -Knl1, -Ndc80

B1: Mis12 (chicken) (protein, UniProt Q1T769 1-210)
chain: MSVRPMAYETQFFGFTPQTCMLRIYLAFQDYLFEMMVVVESVILKKLEALPAVQISRFEIRKSTEKFLHFMKARFDQLFEKMEEVLLQLVLSIPDNVLLPEDRVHQQYPYSQEEFCALQDEISQLQQQCRAEAAAGQALRAELEEQRAVQAELEKVVQWFDGLENVCREHGTGNFKESLVFLTQNCKKLQDVLRDVEEKSKKIKKRQQLL
binding: binds

These are yes or no findings as the source states them, for the method shown. In cells and extracts the contact can be indirect. A result given as binding can be weak or reduced; the word gives no strength.
